{"source": "paper PMC7862700", "note": "The list shows a part of the results. The source does not settle which construct or isoform was used."}
{"target": "T1, ELF2 (UniProt Q15723)", "T1 sequence": "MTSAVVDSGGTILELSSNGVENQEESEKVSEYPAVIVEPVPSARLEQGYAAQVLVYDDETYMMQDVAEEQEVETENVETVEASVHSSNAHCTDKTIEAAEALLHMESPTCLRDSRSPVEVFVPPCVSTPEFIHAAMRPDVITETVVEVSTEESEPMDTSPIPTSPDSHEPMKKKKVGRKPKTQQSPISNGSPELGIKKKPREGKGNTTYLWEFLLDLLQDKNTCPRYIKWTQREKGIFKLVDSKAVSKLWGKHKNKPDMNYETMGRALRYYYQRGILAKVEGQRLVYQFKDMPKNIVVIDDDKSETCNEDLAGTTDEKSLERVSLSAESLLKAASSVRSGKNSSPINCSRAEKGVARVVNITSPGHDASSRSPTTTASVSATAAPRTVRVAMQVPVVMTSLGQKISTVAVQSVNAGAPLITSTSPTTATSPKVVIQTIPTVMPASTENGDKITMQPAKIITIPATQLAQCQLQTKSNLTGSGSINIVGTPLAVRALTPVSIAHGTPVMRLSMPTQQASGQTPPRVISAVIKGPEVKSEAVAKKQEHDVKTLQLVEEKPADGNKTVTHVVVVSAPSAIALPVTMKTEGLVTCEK", "assay": "DAPPL (digital affinity profiling via proximity ligation, sequencing)", "conditions": "10 mM Tris-HCl pH 7.5, 50 mM NaCl, 1 mM DTT, 4% glycerol, room temperature, 30 min; GST-TFs on glutathione beads, 16-mer random dsDNA library, 0.1% …; high values mean tight binding; double strand, one strand shown; scale: fold enrichment (6-mer frequency, TF over GST control)"}
{"sequence": "CTAGGT", "binding signal": 1.03}
{"sequence": "CCGTAA", "binding signal": 1.15}
{"sequence": "TATTTC", "binding signal": 2.69}
{"sequence": "TATCCT", "binding signal": 1.97}
{"sequence": "CTTTTA", "binding signal": 1.25}
{"sequence": "TAACTC", "binding signal": 1.14}
{"sequence": "CACTAA", "binding signal": 1.07}
{"sequence": "CCTAAA", "binding signal": 1.27}
{"sequence": "TTGCAT", "binding signal": 1.34}
{"sequence": "CAATAA", "binding signal": 1.15}
{"sequence": "ACCATA", "binding signal": 1.11}
{"sequence": "TGCGCT", "binding signal": 1.22}
{"sequence": "TTCATC", "binding signal": 1.15}
{"sequence": "CTATAT", "binding signal": 1.46}
{"sequence": "CCCCAT", "binding signal": 1.25}
{"sequence": "CGATTG", "binding signal": 1.11}
{"sequence": "CATTCC", "binding signal": 1.28}
{"sequence": "TAGCCC", "binding signal": 1.1}
{"sequence": "TACGAA", "binding signal": 1.21}
{"sequence": "GCGATG", "binding signal": 1.18}
{"sequence": "TCTCAA", "binding signal": 1.18}
{"sequence": "CCGAAG", "binding signal": 1.01}
{"sequence": "CTCACT", "binding signal": 1.57}
{"sequence": "CTCCGC", "binding signal": 1.42}
{"sequence": "GTATTT", "binding signal": 1.75}
{"sequence": "CACTCT", "binding signal": 1.27}
{"sequence": "TCTCTA", "binding signal": 1.23}
{"sequence": "GGGCCT", "binding signal": 1.19}
{"sequence": "CCTTTC", "binding signal": 1.61}
{"sequence": "TCAATA", "binding signal": 1.14}
{"sequence": "ACTGGC", "binding signal": 1.09}
{"sequence": "ATTAAT", "binding signal": 1.27}
{"sequence": "AACCAT", "binding signal": 1.12}
{"sequence": "TACCAA", "binding signal": 1.1}
{"sequence": "CGACTA", "binding signal": 1.32}
{"sequence": "CTTAGA", "binding signal": 1.03}
{"sequence": "TTCATA", "binding signal": 1.14}
{"sequence": "TGACGA", "binding signal": 1.03}
{"sequence": "TCCTTG", "binding signal": 1.38}
